Measurements as given in patent publication US20230203142A1, “TREATMENT OF METABOLIC DISORDERS THROUGH THE TARGETING OF A NOVEL CIRCULATING HORMONE COMPLEX” (The President and Fellows of Harvard College, priority 2020, published 2023).
Results are given in words; binding and its absence hold for the method and conditions named. Some binding calls cover weakened binding; strength is not graded here.

Chains of the proteins cited; added tags and fusions are not shown. Lines headed by an entry give the natural chain unless they say otherwise; changes in a name come on top.
UniProt P55263: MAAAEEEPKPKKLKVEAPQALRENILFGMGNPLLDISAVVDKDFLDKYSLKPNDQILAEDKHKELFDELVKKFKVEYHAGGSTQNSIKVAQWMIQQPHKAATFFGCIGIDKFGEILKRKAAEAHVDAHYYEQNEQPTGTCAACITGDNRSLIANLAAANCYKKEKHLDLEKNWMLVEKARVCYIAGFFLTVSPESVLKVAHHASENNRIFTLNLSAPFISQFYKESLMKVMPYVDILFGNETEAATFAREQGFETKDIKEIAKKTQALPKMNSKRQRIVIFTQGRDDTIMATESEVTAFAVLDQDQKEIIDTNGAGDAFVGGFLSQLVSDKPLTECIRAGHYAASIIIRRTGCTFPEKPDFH
UniProt P15531: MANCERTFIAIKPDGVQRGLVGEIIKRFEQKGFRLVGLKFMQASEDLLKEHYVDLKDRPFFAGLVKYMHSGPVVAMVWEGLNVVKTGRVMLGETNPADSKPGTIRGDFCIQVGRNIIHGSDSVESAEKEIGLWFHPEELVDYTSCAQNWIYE

Experiments:
[1] = biological target: human ADK (adenosine kinase), recombinant (human) (UniProt P55263); experiment: MST
[2] = biological target: human NDPK-A (nucleoside diphosphate kinase A), full-length recombinant (human) (UniProt P15531); experiment: MST

B1: recombinant human FABP4 (fatty acid binding protein 4) (protein)
chain: CDAFVGTWKLVSSENFDDYMKEVGVGFATRKVAGMAKPNMIISVNGDVITIKSESTFKNTEISFILGQEFDEVTADDRKVKSTITLDGGVLVHVQKWDGKSTTIKRKREDDKLVVECVMKGVTSTRVYERA
- binding [1]: binds
- binding [2]: binds
